Data on 1 molecule can be found in publication doi:10.1101/2021.10.14.464399.

By UniProt entry, the sequences of proteins in these tests, tags left out. Where a name states a change or a piece, a line headed by the entry shows the natural chain unless it says otherwise.
UniProt P43254: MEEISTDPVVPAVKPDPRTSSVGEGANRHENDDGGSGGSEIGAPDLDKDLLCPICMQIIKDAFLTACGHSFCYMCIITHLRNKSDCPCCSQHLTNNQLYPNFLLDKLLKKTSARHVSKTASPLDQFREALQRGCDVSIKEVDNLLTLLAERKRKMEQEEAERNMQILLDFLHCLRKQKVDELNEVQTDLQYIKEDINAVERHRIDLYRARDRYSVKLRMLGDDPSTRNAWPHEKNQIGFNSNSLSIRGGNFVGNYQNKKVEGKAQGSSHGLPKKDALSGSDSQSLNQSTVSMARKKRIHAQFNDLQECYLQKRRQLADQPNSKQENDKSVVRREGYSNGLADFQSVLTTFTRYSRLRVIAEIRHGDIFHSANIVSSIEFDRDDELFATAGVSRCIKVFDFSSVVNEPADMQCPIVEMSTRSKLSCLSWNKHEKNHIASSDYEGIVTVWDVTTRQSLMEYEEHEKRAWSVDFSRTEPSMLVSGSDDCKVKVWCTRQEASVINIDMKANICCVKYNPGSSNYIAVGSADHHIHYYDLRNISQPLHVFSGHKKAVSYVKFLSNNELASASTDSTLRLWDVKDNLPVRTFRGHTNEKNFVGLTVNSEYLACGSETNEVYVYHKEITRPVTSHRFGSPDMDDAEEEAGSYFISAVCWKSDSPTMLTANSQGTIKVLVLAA

The target of the experiment is C-terminal WD40-domain of COP1 (COP1^C340) (Arabidopsis thaliana) (UniProt P43254). Kind of experiment: two-hybrid.

These are yes or no findings as the source states them, for the method shown. Binding calls can cover weak binding; strength is not graded here.

B1: BBX21 (protein, UniProt Q9LQZ7 1-331)
chain: MKIRCDVCDKEEASVFCTADEASLCGGCDHQVHHANKLASKHLRFSLLYPSSSNTSSPLCDICQDKKALLFCQQDRAILCKDCDSSIHAANEHTKKHDRFLLTGVKLSATSSVYKPTSKSSSSSSSNQDFSVPGSSISNPPPLKKPLSAPPQSNKIQPFSKINGGDASVNQWGSTSTISEYLMDTLPGWHVEDFLDSSLPTYGFSKSGDDDGVLPYMEPEDDNNTKRNNNNNNNNNNNTVSLPSKNLGIWVPQIPQTLPSSYPNQYFSQDNNIQFGMYNKETSPEVVSFAPIQNMKQQGQNNKRWYDDGGFTVPQITPPPLSSNKKFRSFW
For the molecule B1, the binding result was “binds”.
